Experimental data published in PMC2684528.

Sequences of proteins named here, by UniProt entry; tags and fusion partners are left off.
UniProt P49023: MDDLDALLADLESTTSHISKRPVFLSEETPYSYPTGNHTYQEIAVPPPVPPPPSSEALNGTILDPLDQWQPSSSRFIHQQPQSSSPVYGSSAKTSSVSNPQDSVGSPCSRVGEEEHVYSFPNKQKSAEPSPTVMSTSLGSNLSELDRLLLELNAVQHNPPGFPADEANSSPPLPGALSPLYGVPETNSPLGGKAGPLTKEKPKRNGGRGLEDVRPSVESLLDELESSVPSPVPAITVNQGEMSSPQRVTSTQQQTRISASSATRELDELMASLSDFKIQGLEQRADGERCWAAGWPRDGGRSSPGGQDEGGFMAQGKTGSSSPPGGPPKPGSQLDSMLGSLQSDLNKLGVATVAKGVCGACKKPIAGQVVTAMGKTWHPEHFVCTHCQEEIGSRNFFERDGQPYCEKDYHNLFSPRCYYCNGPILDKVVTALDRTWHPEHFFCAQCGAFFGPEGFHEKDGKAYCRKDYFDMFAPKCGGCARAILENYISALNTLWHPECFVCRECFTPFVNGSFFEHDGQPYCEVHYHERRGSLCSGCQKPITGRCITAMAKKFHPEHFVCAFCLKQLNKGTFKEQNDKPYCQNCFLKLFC

Key:
FLAG-Nudel^C36 (human) = FLAG-Nudel^C36 (human) (UniProt Q9GZM8); assay: co-IP; lysates of HEK293T cells coexpressing GFP-paxillin and a FLAG fusion protein; anti-FLAG M2 agarose beads 2 h at 4 °C in co-IP buffer (20 mM Tris-HCl pH 7.5, 100 mM KCl, 0.1% NP-40, 1 mM EDTA, 10% glycerol, 1 mM DTT, phosphatase and protease inhibitors); eluted with FLAG peptide; Ponceau S staining and immunoblotting
FLAG-Nudel^N20 (human) = FLAG-Nudel^N20 (human) (UniProt Q9GZM8); assay: as above
FLAG-Nudel (human) = target: T1, FLAG-Nudel (human) (UniProt Q9GZM8); assay: co-IP; exogenous proteins expressed separately in HEK293T cells; cell lysates premixed for 2 h, then co-IP with anti-FLAG resin
T1 sequence: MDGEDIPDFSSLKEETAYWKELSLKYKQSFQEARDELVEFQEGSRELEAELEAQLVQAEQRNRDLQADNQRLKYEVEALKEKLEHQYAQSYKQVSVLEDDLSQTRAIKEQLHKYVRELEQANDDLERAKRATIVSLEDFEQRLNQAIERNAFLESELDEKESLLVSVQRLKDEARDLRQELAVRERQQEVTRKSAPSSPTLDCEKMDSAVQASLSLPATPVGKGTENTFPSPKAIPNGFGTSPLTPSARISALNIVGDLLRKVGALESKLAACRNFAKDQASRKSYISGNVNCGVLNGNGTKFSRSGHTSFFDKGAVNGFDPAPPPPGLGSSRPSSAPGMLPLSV

binding (FLAG-Nudel^C36 (human)) | binding (FLAG-Nudel^N20 (human)) | binding (FLAG-Nudel (human)) | Substance
no binding | binds | – | GFP-paxillin (from UniProt P49023 1-591)
– | – | binds | dynein intermediate chain (DIC) (human (endogenous in HEK293T))

These are yes or no findings as the source states them, for the method shown. In cells and extracts the contact can be indirect. For part of these data: Binding can be weak; no strength is given. For part of these data: Where a sequence is shown, tags or fusion partners need not be part of it.
